This test concerns the target T1, GST–NDRG2 (N-Myc downstream-regulated gene 2) (UniProt Q9UN36).
T1 sequence: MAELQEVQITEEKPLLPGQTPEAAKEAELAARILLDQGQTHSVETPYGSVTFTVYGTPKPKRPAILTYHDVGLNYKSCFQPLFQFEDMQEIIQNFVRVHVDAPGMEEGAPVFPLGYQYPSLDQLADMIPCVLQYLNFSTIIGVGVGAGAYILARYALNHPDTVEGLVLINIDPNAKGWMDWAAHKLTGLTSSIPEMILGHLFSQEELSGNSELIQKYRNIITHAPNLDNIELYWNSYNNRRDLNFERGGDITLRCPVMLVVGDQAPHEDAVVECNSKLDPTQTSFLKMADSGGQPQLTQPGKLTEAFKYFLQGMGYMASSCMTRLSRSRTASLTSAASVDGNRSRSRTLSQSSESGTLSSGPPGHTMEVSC
In words: pull-down; GST pull-down on glutathione sepharose 4B from lysates of HEK293 cells co-transfected with GST, GST–NDRG2 or NDRG2 ΔC and HA–GSK3β; 0.5% NP40, 50 mM Tris-HCl pH 8.0, 150 mM NaCl, 4 °C overnight; immunoblotting.

The chains behind the UniProt entries cited, without tags or fusion partners. Where a name states a change or a piece, a line headed by the entry shows the natural chain unless it says otherwise.
UniProt P67775: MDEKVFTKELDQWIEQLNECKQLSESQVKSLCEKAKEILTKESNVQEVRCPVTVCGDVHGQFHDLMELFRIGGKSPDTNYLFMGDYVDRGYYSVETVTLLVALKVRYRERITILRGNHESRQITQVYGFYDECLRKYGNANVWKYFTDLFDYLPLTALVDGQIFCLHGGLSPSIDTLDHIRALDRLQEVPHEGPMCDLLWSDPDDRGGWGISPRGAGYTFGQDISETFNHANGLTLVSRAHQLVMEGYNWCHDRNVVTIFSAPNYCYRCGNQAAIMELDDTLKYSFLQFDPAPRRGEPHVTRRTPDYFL

No constants are given. Whether binding was seen depends on the method and setting. Binding seen in cells or lysates may run through a third protein. Binding calls can cover weak binding; strength is not graded here. Sequences can lack the tags named with a protein.

Regarding “endogenous PP2Ac (protein phosphatase 2A catalytic subunit) (from UniProt P67775) (enzyme)”, the binding entry is on record as “binds”.

Source of the values: publication PMC6562968.
